“Also recorded” adds a separate entry of the source. At least one compound was matched to its structure with a doubt left.
Columns and labels:
TNF production [1] = test: Inhibition of LPS-stimulated TNF production in the human monocytic cell line THP-1 (ELISA); assay type: cell-based; conditions: LPS-stimulated THP-1 cells; 10 µM
Protocol: Cultures were maintained by the addition of fresh growth medium to a T-75 or T-150 flask of cells in suspension, or by pelleting the cells and re-suspending them in the appropriate volume of fresh medium. Maximum cell density was 1.0 x 10^6 cells per mL and cultures were seeded at a minimum density of 0.2 x 10^6 cells per ml.
THP-1 cells were plated into 24-well plates at a density of 1.0 x 10^6 cells per mL in 0.5 mL medium per well. […] For measurement of IL-1α and IL-1β production, THP-1 cells were incubated with 500 ng/mL or 50 ng/mL LPS and incubated for 16 hours. Levels of secreted cytokine were measured in cell supernatants as for TNF. Cell-associated species were measured in cell lysates which were prepared by repetitive freeze-thawing of cells. For in vitro screening, drugs at 10 µM concentration were co-administered with LPS. […] Drug effects on cell viability were assessed by the MTT assay. […] Water-soluble drugs were dissolved in aqueous solutions such as RPMI or deionized H20. The final concentration of DMSO in the incubation medium was at or below 0.01% and that of ethanol was at or below 0. 1%. The effect on cell viability was evaluated by the MTT assay.

TNF production [2] = test: Inhibition of LPS-stimulated TNF production in the mouse macrophage line RAW 264.7 (ELISA); assay type: cell-based; conditions: RAW cells; drug 10 µM
Protocol: Cells were passaged at confluence by scraping and routinely plated at a density of 0.25 x 10^6 and 0.5 x 10^6 cells per T-75 and T-150, respectively.
Typically, RAW cells were plated at 0.25 x 10^6 cells per well of a 24-well plate, in 0.5 mL media per well on the day prior to experimentation. […] 1%. Drugs were co-administered with the stimulant, LPS. After a 6-hr incubation period with LPS ± drug (n = 3-4), the media from the experimental wells was harvested, the cells were removed by microcentrifugation, and the media assayed for TNF by ELISA. Drugs were screened at 10 µM for their ability to alter TNF production by cells stimulated with 1 µg/mL or 10 ng/mL LPS. Dexamethasone, an anti-inflammatory corticosteroid, served as the reference for inhibition of the LPS response.

SMILES	effectiveness against LPS-stimulated TNF production (in words) (TNF production [1])	effectiveness against LPS-stimulated TNF production (in words) (TNF production [2])
COCCOC(=O)C1=C(C)NC(C)=C(C(=O)OC(C)C)C1c1cccc([N+](=O)[O-])c1 (stereo not drawn) [Nimodipine, nimodipine]	marginally effective; also recorded: much less effective	as effective as dexamethasone
COC(=O)C1=C(C)NC(C)=C(C(=O)OC)C1c1ccccc1[N+](=O)[O-] [Nifedipine]	much less effective	–
